Experimental data as given in the supplement of paper PMC10849652.
Some of the results follow.

Protein sequences, listed by entry. Tags and fused reporters are not part of them. Lines headed by an entry give the natural chain unless they say otherwise; changes in a name come on top.
UniProt Q92526, whole entry, looked up: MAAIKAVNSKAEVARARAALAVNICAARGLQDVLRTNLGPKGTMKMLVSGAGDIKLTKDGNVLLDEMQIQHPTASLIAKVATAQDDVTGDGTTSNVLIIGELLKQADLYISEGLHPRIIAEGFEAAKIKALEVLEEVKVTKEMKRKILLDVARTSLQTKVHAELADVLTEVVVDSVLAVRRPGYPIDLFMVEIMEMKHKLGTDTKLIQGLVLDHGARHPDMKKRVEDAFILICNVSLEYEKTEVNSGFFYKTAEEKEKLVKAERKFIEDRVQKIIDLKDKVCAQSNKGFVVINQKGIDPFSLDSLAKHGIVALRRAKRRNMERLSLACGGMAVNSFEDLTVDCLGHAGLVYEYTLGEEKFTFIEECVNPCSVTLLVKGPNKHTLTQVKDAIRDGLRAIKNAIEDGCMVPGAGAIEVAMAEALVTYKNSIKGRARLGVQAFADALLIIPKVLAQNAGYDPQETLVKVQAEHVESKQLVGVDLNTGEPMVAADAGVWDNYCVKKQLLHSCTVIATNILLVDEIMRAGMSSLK
UniProt Q9UKL3: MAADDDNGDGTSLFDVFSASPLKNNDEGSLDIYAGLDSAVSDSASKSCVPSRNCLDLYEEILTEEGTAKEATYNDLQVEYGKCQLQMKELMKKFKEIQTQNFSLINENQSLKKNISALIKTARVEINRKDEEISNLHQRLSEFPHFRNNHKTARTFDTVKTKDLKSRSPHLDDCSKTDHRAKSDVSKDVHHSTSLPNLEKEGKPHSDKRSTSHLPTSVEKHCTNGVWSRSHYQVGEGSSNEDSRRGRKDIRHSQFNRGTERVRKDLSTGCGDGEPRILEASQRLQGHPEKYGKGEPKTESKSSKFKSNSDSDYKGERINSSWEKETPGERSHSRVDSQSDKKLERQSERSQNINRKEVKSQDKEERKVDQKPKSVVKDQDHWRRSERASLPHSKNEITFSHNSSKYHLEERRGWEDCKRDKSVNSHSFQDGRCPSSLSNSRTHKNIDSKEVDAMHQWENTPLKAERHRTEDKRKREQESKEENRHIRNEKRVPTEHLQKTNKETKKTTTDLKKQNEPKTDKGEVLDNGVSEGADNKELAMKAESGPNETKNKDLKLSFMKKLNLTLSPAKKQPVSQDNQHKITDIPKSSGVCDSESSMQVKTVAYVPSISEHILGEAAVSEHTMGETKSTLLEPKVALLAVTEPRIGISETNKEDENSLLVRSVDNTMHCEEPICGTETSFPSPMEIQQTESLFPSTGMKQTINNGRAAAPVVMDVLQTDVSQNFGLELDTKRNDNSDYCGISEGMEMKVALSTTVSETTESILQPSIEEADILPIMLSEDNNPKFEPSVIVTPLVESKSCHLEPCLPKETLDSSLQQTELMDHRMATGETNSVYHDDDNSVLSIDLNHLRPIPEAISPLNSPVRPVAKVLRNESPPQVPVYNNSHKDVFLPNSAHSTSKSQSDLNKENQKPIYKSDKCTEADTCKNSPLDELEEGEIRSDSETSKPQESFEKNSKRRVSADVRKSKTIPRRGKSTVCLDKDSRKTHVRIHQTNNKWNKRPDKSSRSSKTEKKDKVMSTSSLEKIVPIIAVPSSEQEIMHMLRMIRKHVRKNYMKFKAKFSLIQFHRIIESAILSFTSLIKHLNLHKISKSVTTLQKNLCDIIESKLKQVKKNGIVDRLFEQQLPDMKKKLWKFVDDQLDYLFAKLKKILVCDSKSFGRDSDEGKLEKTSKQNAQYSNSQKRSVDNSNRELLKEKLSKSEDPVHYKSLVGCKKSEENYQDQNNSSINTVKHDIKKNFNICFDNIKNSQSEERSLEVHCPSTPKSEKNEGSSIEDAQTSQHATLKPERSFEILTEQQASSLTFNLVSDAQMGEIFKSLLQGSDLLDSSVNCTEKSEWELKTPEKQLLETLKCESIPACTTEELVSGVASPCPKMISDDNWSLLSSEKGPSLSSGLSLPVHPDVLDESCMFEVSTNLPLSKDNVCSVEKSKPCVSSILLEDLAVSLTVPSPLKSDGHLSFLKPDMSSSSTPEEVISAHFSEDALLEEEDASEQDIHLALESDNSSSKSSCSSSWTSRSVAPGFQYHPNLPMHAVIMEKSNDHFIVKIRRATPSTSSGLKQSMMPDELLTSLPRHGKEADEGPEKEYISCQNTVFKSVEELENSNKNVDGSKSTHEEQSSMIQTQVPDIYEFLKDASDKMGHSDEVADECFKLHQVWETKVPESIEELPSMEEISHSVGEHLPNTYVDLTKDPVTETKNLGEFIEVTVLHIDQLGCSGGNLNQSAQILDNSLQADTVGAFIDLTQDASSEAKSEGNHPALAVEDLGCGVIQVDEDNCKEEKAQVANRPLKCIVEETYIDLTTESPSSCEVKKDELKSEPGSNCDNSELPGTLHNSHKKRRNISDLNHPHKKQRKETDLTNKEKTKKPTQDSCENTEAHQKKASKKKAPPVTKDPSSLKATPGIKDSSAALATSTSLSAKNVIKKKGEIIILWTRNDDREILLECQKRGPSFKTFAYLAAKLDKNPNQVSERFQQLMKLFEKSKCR
UniProt Q8IYE1: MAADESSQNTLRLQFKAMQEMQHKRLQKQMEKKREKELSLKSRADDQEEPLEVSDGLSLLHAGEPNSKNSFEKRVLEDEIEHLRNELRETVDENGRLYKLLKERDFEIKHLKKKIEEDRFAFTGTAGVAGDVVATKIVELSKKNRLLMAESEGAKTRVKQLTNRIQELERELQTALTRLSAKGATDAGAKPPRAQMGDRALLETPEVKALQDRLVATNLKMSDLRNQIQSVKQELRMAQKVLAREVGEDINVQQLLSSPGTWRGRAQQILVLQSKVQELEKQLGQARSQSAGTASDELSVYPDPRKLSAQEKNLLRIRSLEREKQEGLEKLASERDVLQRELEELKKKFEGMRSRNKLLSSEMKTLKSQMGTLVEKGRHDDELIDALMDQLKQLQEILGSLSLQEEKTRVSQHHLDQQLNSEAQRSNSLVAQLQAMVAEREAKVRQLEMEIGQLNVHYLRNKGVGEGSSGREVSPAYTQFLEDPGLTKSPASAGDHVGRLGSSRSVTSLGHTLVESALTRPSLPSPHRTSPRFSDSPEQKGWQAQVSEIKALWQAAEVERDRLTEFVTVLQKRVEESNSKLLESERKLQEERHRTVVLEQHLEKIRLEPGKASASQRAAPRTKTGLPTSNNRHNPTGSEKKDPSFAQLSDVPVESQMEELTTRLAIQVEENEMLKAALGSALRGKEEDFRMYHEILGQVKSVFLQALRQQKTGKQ
UniProt P24864, whole entry, looked up: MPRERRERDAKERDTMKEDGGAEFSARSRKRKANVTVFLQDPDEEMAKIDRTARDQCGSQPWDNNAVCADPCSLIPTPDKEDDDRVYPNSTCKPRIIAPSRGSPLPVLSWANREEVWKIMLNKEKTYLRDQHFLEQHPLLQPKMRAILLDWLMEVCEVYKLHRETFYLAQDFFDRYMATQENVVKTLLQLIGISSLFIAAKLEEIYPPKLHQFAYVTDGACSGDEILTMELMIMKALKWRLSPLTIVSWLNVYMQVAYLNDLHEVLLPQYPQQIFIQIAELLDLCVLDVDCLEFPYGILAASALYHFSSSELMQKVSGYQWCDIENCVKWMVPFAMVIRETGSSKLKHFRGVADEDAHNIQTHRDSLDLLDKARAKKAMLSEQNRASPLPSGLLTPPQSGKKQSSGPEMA
UniProt Q9H0W5: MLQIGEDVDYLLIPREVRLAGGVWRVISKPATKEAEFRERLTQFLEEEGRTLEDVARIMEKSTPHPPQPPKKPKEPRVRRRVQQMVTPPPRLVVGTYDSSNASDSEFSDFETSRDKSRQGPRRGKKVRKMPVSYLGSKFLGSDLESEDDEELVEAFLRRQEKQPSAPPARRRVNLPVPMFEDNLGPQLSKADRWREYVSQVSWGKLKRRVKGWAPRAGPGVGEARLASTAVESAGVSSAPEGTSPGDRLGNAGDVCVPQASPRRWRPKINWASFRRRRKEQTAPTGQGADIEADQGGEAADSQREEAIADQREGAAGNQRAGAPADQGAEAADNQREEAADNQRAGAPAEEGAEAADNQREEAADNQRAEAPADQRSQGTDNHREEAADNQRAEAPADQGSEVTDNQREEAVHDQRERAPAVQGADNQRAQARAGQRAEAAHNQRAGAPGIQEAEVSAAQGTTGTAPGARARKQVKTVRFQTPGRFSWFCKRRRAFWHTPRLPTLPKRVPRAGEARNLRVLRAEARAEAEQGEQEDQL
UniProt Q96M89: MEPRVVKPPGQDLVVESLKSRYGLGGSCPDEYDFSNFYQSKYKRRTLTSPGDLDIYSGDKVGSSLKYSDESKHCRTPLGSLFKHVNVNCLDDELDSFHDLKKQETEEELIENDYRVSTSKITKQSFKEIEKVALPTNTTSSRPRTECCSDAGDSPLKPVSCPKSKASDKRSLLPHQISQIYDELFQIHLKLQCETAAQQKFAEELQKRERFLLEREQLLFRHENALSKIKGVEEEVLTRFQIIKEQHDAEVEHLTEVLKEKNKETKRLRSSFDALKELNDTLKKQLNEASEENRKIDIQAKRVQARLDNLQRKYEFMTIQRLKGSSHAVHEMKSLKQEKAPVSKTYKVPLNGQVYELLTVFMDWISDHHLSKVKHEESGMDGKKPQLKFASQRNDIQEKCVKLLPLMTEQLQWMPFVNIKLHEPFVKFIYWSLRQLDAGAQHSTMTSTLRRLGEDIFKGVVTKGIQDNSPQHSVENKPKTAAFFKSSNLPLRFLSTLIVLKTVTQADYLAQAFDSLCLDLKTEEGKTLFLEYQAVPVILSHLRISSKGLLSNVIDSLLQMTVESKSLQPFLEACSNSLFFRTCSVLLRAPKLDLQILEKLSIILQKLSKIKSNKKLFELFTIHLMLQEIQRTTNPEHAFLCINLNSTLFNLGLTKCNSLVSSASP
UniProt P20138, whole entry, looked up: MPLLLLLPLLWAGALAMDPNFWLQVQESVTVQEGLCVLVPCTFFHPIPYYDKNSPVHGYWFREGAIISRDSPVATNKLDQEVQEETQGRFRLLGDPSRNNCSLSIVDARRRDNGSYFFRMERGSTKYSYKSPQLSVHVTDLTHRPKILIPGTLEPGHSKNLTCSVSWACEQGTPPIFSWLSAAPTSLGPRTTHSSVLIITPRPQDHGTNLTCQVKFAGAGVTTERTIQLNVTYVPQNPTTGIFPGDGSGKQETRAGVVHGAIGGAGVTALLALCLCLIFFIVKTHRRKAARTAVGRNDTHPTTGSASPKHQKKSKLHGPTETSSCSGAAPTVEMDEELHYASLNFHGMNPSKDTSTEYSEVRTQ
UniProt Q14781, whole entry, looked up: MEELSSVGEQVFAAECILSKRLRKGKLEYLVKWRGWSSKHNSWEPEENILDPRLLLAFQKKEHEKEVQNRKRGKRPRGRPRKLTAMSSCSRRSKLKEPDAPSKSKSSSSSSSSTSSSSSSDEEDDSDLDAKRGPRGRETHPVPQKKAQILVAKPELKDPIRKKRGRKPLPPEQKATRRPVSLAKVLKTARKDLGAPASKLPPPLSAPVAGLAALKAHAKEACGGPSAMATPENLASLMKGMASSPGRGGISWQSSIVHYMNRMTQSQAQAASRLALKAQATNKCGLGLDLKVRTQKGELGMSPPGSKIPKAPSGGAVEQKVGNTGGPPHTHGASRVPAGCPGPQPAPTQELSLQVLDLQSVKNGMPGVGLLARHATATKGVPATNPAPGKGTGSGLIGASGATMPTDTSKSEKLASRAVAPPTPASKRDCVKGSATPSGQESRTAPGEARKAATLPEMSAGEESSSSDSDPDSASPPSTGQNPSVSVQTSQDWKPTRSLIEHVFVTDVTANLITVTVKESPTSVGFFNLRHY
UniProt Q8WTX7: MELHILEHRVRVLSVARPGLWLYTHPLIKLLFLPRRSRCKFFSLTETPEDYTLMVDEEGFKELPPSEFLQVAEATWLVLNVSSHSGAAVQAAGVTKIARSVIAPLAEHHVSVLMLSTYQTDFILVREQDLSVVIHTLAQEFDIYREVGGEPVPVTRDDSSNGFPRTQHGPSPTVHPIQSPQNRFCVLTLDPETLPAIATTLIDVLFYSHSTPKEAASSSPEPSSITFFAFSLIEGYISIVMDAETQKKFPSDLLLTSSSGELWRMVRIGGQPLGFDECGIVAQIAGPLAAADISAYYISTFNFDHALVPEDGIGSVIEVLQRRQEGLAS
UniProt Q07108: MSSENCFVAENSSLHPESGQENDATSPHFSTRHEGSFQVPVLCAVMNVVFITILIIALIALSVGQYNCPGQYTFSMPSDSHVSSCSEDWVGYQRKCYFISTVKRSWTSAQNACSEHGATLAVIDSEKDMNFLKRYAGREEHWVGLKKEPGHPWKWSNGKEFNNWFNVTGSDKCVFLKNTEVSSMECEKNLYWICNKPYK
UniProt P40259: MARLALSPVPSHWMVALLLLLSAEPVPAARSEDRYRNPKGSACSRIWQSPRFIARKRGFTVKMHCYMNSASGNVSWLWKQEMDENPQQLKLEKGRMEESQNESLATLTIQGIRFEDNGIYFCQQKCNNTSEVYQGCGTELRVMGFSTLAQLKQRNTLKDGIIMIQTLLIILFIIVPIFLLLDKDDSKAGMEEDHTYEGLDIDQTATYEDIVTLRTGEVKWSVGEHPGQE

How the values were obtained:
Experiment in all cases: log2 fold change, soluble protein after heating vs DMSO (PISA); higher = thermal stabilisation; K562 lysate, 10 uM; active = over 0.2 and 3.5 SD of the protein, either way, in both replicates (recomputed)
[1] = compound: C1=CC2=NC=CN=C2C=C1/C=C/3\C(=O)NC(=O)S3
How it was run: (§1)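 Log-two fold change in thermal stability relative to solvent controls is reported from duplicates. For each sample, crude K562 extract from dounce-homogenised pellets in PBS pH 7.4 with 1 mM MgCl2, at 1 mg/mL protein, was treated with 10 μM compound for 30 min. Aliquots heated for 3 min across 48°C-58°C were pooled, brought to 0.5% NP-40 at 4°C and cleared at 21,000xg for 90 min. The supernatant was quantified by TMTpro 16plex LC-MS/MS with channel sums equalised.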

ibrutinib = compound: C=CC(=O)N1CCC[C@@H](n2nc(-c3ccc(Oc4ccccc4)cc3)c3c(N)ncnc32)C1 [ibrutinib]
How it was run: as §1

[2] = compound: CC(=O)c1cnc2ccc(-c3cc(Cl)c(O)c(Cl)c3)nc2c1N[C@H]1CC[C@H](CN(C)C)CC1
How it was run: as §1

[3] = compound: CC1=CC=C(C=C1)SC2=C3C=C(SC3=CN=C2)C(=O)N
How it was run: as §1

[4] = compound: C1=CC=C(C=C1)C2=NC(=C(N2)C3=CC=NC=C3)C4=CC(=C(C=C4)Cl)O
How it was run: as §1

[5] = compound: C1CCN(C1)C(=O)NC2=CC=CC(=C2)NC3=NC=C(C(=N3)NCCC4=CN=CN4)Br
How it was run: as §1

[6] = compound: C1CN(CCC1(CC2=CC=C(C=C2)Cl)N)C3=NC=NC4=C3C=CN4
How it was run: as §1

IRAK-1-4 Inhibitor I = compound: C1COCCN1CCN2C3=CC=CC=C3N=C2NC(=O)C4=CC(=CC=C4)[N+](=O)[O-] [IRAK-1-4 Inhibitor I]
How it was run: as §1

ralimetinib = compound: CC(C)(C)Cn1c(N)nc2ccc(-c3[nH]c(C(C)(C)C)nc3-c3ccc(F)cc3)nc21 [ralimetinib]
How it was run: as §1

[7] = compound: CC(C)(O)CC(=O)NCCn1ccc2ncnc(Nc3ccc(Oc4cccc(C(F)(F)F)c4)c(Cl)c3)c21
How it was run: as §1

[8] = compound: CC1=C(C=C(C=C1)NC(=O)C2=CC(=CC=C2)C(C)(C)C#N)NC3=CC4=C(C=C3)N=CN(C4=O)C
How it was run: as §1

[9] = compound: CC1=C(C=C(C=C1)NC(=O)C2=CC(=CC=C2)N(C)C)NC(=O)C3=CC=C(C=C3)O
How it was run: as §1

[10] = compound: C/C(=N\NC(=O)C1=CC(=CC=C1)S(=O)(=O)N2CCOCC2)/C3=C(C=CC(=C3)Cl)O
How it was run: as §1

[11] = compound: C1=CC2=C(C=CC(=C2)/C=C\3/C(=O)NC(=NCC4=CC=CS4)S3)N=C1
How it was run: as §1

[12] = compound: C1=CC=C2C(=C1)C3=NNC4=CC=CC(=C43)C2=O
How it was run: as §1

[13] = compound: CC1=C(C(CC(=O)N1)C2=CC=C(C=C2)C(F)(F)F)C(=O)NC3=C(C=C4C(=C3)C=NN4)F
How it was run: as §1

[14] = compound: CC1=C(C2=C(C=C1)C(=O)C3=CC=CC=C3N2CCCN)C
How it was run: as §1

Measured: log2 fold change

CCT6B (UniProt Q92526)
inactive: [1] 0.082 | ibrutinib 0.168 | [2] -0.022 | [3] 0.016

CASP8AP2 (UniProt Q9UKL3)
inactive: [1] 0.038 | [4] 0.074 | [5] -0.016 | [6] 0.043 | IRAK-1-4 Inhibitor I -0.183 | ibrutinib -0.065 | ralimetinib 0.079 | [7] -0.016 | [8] -0.111 | [9] -0.037

CCDC13 (UniProt Q8IYE1)
inactive: [10] 0.036 | [11] -0.026 | [1] -0.075 | [12] -0.28 | [5] -0.114 | [6] 0.232 | ibrutinib 0.412 | [2] -0.024 | [13] 0 | [14] -0.412 | [8] 0.151 | [3] -0.052

CCNE1 (UniProt P24864)
inactive: [10] -0.146 | [11] 0.067 | [1] 0.051 | [4] 0.01 | [12] 0 | [5] 0.072 | [6] 0.074 | IRAK-1-4 Inhibitor I 0.007 | ibrutinib 0.09 | [2] 0.069 | ralimetinib 0.07 | [7] -0.028 | [14] 0.024 | [8] 0.064 | [9] -0.038 | [3] -0.103

CCDC66 (UniProt A2RUB6)
inactive: [4] 0.048 | [5] -0.04 | [6] -0.021 | IRAK-1-4 Inhibitor I 0.043 | ralimetinib 0.017 | [7] -0.159 | [9] 0.052

CARHSP1 (UniProt H3BNU9)
inactive: [1] -0.215 | ibrutinib 0.147 | [2] -0.005 | [13] -0.107 | [3] 0.107

CCDC18 (UniProt Q5T9S5)
inactive: [4] 0.121 | [5] -0.095 | [6] -0.045 | IRAK-1-4 Inhibitor I 0.143 | ralimetinib -0.02 | [7] -0.133 | [13] -0.087 | [14] 0.003 | [8] 0.077 | [9] -0.021

CBX3 (UniProt B8ZZ43)
inactive: [4] 0.022 | IRAK-1-4 Inhibitor I 0.038 | ralimetinib -0.006 | [7] -0.179 | [13] -0.055 | [8] -0.02 | [9] 0.011

CCDC88A isoform 2 (UniProt Q3V6T2)
inactive: [13] 0.085

CCAR2 (UniProt G3V119)
inactive: [2] 0.017 | [3] -0.047

CCDC8 (UniProt Q9H0W5)
inactive: [13] 0.066 | [14] -0.049

CCT6B isoform 3 (UniProt Q92526)
inactive: [10] -0.004 | [11] -0.01 | [12] -0.225 | [2] -0.016 | [14] -0.159 | [3] -0.135

CCDC138 (UniProt Q96M89)
inactive: [13] 0.033

CD226 (UniProt Q15762)
inactive: [1] -0.148 | ibrutinib 0.122 | [2] 0.183 | [3] 0.142

CCDC59 (UniProt Q9P031)
inactive: [10] 0.006 | [11] -0.077 | [1] 0.018 | [12] 0.042 | [5] 0.071 | [6] -0.003 | ibrutinib 0.02 | [2] -0.052 | [13] 0.028 | [14] -0.059 | [8] 0.039 | [3] -0.066

CASP10 isoform 2 (UniProt Q92851)
inactive: [4] -0.094 | [5] -0.156 | [6] -0.111 | IRAK-1-4 Inhibitor I -0.147 | ralimetinib 0.139 | [7] 0.022 | [14] -0.032 | [9] 0.032

CCDC57 (UniProt Q2TAC2)
inactive: [10] 0.041 | [11] -0.015 | [1] -0.023 | [4] 0.042 | [12] -0.035 | [5] -0.105 | [6] -0.062 | IRAK-1-4 Inhibitor I 0.016 | ibrutinib -0.041 | [2] -0.063 | ralimetinib -0.053 | [7] -0.03 | [13] -0.038 | [14] 0.02 | [9] -0.05 | [3] -0.007

CD33 (UniProt P20138)
inactive: [2] -0.041 | [13] 0.015 | [14] 0.13 | [8] -0.357 | [3] 0.064

CCT8 (UniProt H7C4C8)
inactive: [4] 0.008 | IRAK-1-4 Inhibitor I 0.139 | ralimetinib 0.061 | [7] 0.056 | [13] -0.003 | [8] -0.125 | [9] -0.094

CCDC175 (UniProt P0C221)
inactive: [10] 0.018 | [11] -0.052 | [12] -0.169 | [5] -0.023 | [6] 0.225 | [2] 0.055 | [3] 0.025

CBX8 (UniProt Q9HC52)
inactive: [10] -0.255 | [11] 0.133 | [12] -0.046 | [5] -0.168 | [6] -0.02 | [8] 0.027

CBX2 (UniProt Q14781)
inactive: [2] -0.253 | [13] 0.174 | [3] -0.192

CCND1 (UniProt P24385)
inactive: [8] 0.151

CASTOR1 (UniProt Q8WTX7)
inactive: [8] 0.131

CCNT2 (UniProt O60583)
inactive: [10] -0.252 | [11] -0.036 | [1] -0.047 | [4] 0.006 | [12] 0.119 | [5] 0.023 | [6] 0.07 | IRAK-1-4 Inhibitor I 0.091 | ibrutinib -0.014 | [2] -0.325 | ralimetinib -0.008 | [7] -0.148 | [13] 0.003 | [14] -0.086 | [8] 0.113 | [9] 0.039 | [3] 0.061

CCNL1 (UniProt Q9UK58)
inactive: [5] -0.036 | [6] -0.024 | [2] 0.042 | [13] 0.089 | [8] -0.016 | [3] 0.01

CASC1 (UniProt Q6TDU7)
active: [1] 1.74
inactive: [4] -0.03 | IRAK-1-4 Inhibitor I 0.179 | ibrutinib 0.24 | ralimetinib 0.078 | [7] -0.093 | [9] 0.097

CCDC9, A0A2R8Y4Z8
inactive: [1] 0.075 | [4] 0.045 | IRAK-1-4 Inhibitor I 0.279 | ibrutinib -0.005 | [2] -0.185 | ralimetinib -0.082 | [7] -0.133 | [14] -0.122 | [8] -0.154 | [9] 0.058 | [3] -0.04

CASP8 isoform 4 (UniProt Q14790)
inactive: [1] 0.096 | ibrutinib 0.001 | [14] 0.072

Retrieved one by one from above (2):
CCDC9, A0A2R8Y4Z8
inactive: [1] 0.075 | [4] 0.045 | IRAK-1-4 Inhibitor I 0.279 | ibrutinib -0.005 | [2] -0.185 | ralimetinib -0.082 | [7] -0.133 | [14] -0.122 | [8] -0.154 | [9] 0.058 | [3] -0.04

CCNL1 (UniProt Q9UK58)
inactive: [5] -0.036 | [6] -0.024 | [2] 0.042 | [13] 0.089 | [8] -0.016 | [3] 0.01

The list goes on.

CD69 (UniProt Q07108)
inactive: [8] -0.122

CD79B isoform 3 (UniProt P40259)
inactive: [14] -1.68

CCDC71L (UniProt Q8N9Z2)
inactive: [14] 0.064
